Laboratory results published in US20100062065A1, “PHARMACEUTICAL COMPOSITION CONTAINING NAPHTHOQUINONE-BASED COMPOUND FOR INTESTINE DELIVERY SYSTEM” (MAZENCE INC., priority 2006, published 2010).
The name of at least one read-out is uncertain.

Assay: Intestinal absorption, single-pass intestinal perfusion
Assay type: in vivo, rats
Details: residual amounts over time, FIG. 1
Experimental: In order to determine intestinal absorption (%) of a naphthoquinone-based compound, a single-pass intestinal perfusion technique was carried out in internal organs of rats, including jejunum, ileum and large intestine. The steady-state intestinal effective permeability (Peff) can be expressed according to the following equation. Peff=[−Qin·ln(Cout/Cin)]/A • Peff: Steady-state intestinal effective permeability (cm/s) • Qin: Perfusion flow rate (0.4 mL/min) • Cin, Cout: Inlet and fluid-transport-corrected outlet solution concentrations • A: Mass transfer surface area within intestinal segment (2πrL), • r, L: Radius and length of intestinal segment The radius (r) and length (L) of the jejunum, ileum and large intestine used in experiments are as follows: (r: jejunum, 0.21 cm; ileum, 0.22 cm; large intestine, 0.23 cm, and L: 10 cm) The steady-state was confirmed by the ratio of the outlet to inlet concentrations (Cout/Cin) versus time. […] Residual amounts of the naphthoquinone-based compound in the above three intestinal organs were measured at different time points. The outlet steady-state concentration of the compound under perfusion was calculated. […] The effective permeability was measured at 4 points of each intestinal tissue.

Question: For `CC1(C)CCC2=C(O1)c1ccccc1C(=O)C2=O` [Compound 1], which “intestinal permeability (order of tissues)” value is on record?
Answer: Its value is “high in the order of the large intestine, ileum and jejunum”.
